Measurements published in article PMC2614472.
Results are given in words; binding and its absence hold for the method and conditions named. In cells and extracts the contact can be indirect. Some results given as binding are weak or reduced against the parent protein; the word gives no strength. For some of these results: Sequences can lack the tags named with a protein.

The chains behind the UniProt entries cited, without tags or fusion partners.
UniProt P12956: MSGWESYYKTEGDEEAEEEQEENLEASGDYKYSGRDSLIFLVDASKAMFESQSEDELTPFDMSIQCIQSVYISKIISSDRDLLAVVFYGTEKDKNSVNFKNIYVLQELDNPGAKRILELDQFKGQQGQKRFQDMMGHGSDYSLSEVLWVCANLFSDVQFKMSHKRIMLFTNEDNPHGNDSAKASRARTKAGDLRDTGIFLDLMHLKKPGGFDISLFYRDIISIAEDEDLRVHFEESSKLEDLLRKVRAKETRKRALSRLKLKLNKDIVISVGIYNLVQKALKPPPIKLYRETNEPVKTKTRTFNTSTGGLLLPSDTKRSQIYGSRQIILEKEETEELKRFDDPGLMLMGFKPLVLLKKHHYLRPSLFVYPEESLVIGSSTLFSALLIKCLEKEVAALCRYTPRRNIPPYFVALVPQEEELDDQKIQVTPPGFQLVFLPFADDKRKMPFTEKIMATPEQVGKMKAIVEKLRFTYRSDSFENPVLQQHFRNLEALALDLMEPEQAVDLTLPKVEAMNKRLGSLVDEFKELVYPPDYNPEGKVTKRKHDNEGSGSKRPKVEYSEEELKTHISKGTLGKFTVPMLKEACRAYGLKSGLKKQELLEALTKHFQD
UniProt P13010: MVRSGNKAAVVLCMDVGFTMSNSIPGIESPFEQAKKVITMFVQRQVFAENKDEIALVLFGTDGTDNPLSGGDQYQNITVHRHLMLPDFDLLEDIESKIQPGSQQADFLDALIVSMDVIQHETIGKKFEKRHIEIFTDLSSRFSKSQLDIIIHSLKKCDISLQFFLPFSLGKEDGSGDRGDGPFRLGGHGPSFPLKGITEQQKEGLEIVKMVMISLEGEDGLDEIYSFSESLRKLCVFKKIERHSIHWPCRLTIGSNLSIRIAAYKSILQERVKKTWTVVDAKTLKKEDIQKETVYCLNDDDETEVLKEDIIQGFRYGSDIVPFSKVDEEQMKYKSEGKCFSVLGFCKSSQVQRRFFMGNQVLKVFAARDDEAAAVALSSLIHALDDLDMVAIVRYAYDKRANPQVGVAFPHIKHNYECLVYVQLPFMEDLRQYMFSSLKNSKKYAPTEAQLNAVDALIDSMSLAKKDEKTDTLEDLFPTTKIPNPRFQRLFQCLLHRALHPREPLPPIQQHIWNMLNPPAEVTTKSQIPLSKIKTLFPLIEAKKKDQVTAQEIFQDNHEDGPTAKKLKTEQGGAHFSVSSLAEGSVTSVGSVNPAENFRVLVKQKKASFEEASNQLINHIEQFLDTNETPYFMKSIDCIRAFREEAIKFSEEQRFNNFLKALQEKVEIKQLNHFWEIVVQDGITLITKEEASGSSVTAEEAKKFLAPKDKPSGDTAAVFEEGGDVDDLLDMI

How the values were obtained:
[1] = target: T1, endogenous dysbindin-1 (SH-SY5Y cells) (human (endogenous in SH-SY5Y)) (UniProt Q96EV8); experiment: co-IP; endogenous proteins; SH-SY5Y lysate mixed overnight at 4°C with anti-dysbindin-1 antibody (or normal rabbit IgG) coupled to gel; four washes; elution with 100 mM glycine-HCl pH 2.8 in three fractions; blots with anti-Ku70, anti-Ku80, anti-dysbindin-1
T1 sequence: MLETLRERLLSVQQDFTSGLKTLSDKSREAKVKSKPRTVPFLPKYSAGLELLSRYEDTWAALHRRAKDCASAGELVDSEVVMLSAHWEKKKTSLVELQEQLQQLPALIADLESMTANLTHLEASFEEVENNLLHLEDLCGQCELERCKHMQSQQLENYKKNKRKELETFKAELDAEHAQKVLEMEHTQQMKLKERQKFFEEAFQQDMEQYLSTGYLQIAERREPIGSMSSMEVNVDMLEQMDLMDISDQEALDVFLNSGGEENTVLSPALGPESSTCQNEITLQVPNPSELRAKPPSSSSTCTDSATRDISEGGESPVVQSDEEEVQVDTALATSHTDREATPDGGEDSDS

[2] = target: T2, myc-dysbindin-1 isoform A (human) (UniProt Q96EV8); experiment: co-IP; COS-7 cells doubly transfected with myc-dysbindin-1 isoform and Ku70-V5 or Ku80-V5; lysate (50 mM Tris-HCl pH 7.5, 150 mM NaCl, 1 mM EDTA, 1% Triton X-100) precipitated with anti-myc antibody and protein G Sepharose; blot with anti-V5
T2 sequence: T1 sequence

Substance	binding [1]	binding [2]
Ku70, endogenous (from UniProt P12956 1-609)	binds	
ATP-dependent DNA helicase 2 (Ku80), endogenous (from UniProt P13010 1-732)	binds	
Ku70-V5 (from UniProt P12956 1-609)		binds
Ku80-V5 (from UniProt P13010 1-732)		binds
